This data set deals with T1, Cre recombinase (UniProt P06956).
T1 sequence (looked up, limits assumed): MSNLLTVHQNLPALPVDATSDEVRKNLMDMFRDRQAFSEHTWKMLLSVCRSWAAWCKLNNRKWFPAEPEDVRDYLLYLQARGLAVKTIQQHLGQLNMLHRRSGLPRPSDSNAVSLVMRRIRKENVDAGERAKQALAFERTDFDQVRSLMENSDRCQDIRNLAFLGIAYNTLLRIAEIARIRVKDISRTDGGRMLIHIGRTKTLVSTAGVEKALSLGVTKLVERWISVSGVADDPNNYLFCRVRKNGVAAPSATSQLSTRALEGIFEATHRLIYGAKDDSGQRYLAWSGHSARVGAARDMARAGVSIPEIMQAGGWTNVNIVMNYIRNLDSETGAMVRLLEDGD
Put plainly: activity in cells. Conditions: recombines with N2; higher minicircle yield than wild type loxP; protein in cells; variant of loxP wild type (pDlox3/pNIXluc); only the site is given.

Where a protein sequence is shown, tags need not be part of it.

As for “TACCGTTCGTATAGCATACATTATACGAAGTTAT (double strand) [mutant loxP single-element site 2 (pFIXluc/pMlox)]”, the “activity on this sequence” value is reported as “active”.

(Values after patent US20060211117.)
